At least one compound was matched to its structure with a doubt left.
Key:
[1] = tested on: DRG neurons from Thy1-YFP reporter mice; experiment: high-throughput neurite outgrowth assay using DRG neurons from Thy1-YFP reporter mice; type: cell-based, mouse; conditions: one-way ANOVA and Dunnett's post-hoc test, p<0.05, n=10, FIG. 5D-F
neuronal Na+ channels = conditions: Weiser 2008; cited from earlier work
DRG neurons = experiment: neurite outgrowth in DRG neurons after treatment with drugs; type: cell-based; conditions: vs control, p<0.05, t-test, FIG. 5B
Text: FIGS. 5A-5F. Targeting candidate RAG regulatory network using small-molecules. Gene expression signatures after PNS injury were used to query drug-related expression profiles in the Connectivity Map. Using a pattern-matching algorithm, we selected three drugs (ambroxol, disulfiram and lasalocid) based on enrichment and specificity scores. FIG. 5A: Protein-protein interaction (edges) network of co-expressed and differentially expressed genes (nodes) after PNS injury depicting up-regulation and down-regulation after SN lesion; up-regulation and down-regulation after ambroxol treatment (from Connectivity Map). FIG. 5B: Histogram depicting differences in DRG neurite outgrowth after treatment with drugs. […] FIG. 5C: Histogram depicting differential expression of mRNA for critical genes in PPI network validated by qPCR of DRG neurons treated with […] ambroxol (4 days). Legend (FIG. 5C, top to bottom): ATF3, CASP3, EGR1, FOS, JAK2, JUN, KLF4, MYC, PLAUR, RELA, SMAD1, SP1, STAT1 and STAT3: FIGS. 5D-5F: Ambroxol concentration response. […] FIG. 5E: Photomicrographs of DRG neurons in presence of vehicle (control) or 40 μM ambroxol, immunostained for βIII-tubulin. Images acquired using ImagExpressmicro. Scale bar, 50 μm. FIG. 5F: Histogram depicting concentration-response for neurite outgrowth per neuron vs. ambroxol concentration, mean±SEM for three independent experiments.
The gene expression signatures were used to identify FDA approved drugs (Lamb 2007) that may modulate the signaling pathways and gene expression necessary for regeneration. […] Based on the results obtained from the pattern matching algorithm present within the Connectivity Map database, the top three matching expression patterns were chosen based on the connectivity and specificity score, which represented the drugs (ambroxol, lasalocid, and disulfiram). The identified compounds were tested for their effect on gene expression levels of regeneration-associated marker genes and to examine the effect on neurite outgrowth in DRG neurons. […]

[2] = tested on: peripheral neuropathic pain; conditions: animal models; Gaida et al. 2005; cited from earlier work
[3] = tested on: regeneration-associated marker genes; experiment: q-RT-PCR of regeneration-associated marker genes after treatment with candidate drugs; type: cell-based, mouse; conditions: N2A cell lines treated 48 hours, Gapdh internal control, FIG. 10
Description: FIG. 10. Quantitative real-time RT-PCR after treatment of candidate drugs. N2A cell lines were treated with the corresponding drugs for 48 hours and the expression levels of the marker genes was measured by q-RT-PCR, using Gapdh as internal control. Nodes represents the genes tested, the edges represent the direction of regulation (i.e., up-regulation, downregulation) and the edge size represents the extent of fold change.
The gene expression signatures were used to identify FDA approved drugs (Lamb 2007) that may modulate the signaling pathways and gene expression necessary for regeneration. […] Based on the results obtained from the pattern matching algorithm present within the Connectivity Map database, the top three matching expression patterns were chosen based on the connectivity and specificity score, which represented the drugs (ambroxol, lasalocid, and disulfiram). The identified compounds were tested for their effect on gene expression levels of regeneration-associated marker genes and to examine the effect on neurite outgrowth in DRG neurons. […] Since the original pattern was derived from non-neuronal cell lines (30), we tested if ambroxol can change the gene-expression levels of these markers in DRG neurons. […] But, it had no previous relationship to regeneration.

[4] = tested on: optic nerve / retinal ganglion cell axons; experiment: optic nerve regeneration after crush injury in C57BL/6 mice; type: in vivo, mouse; conditions: vs control animals
Description: FIGS. 6A-6E. Ambroxol promotes retinal ganglion cell axonal regeneration. FIG. 6A: Ambroxol (Amb-25 mg/ml) or vehicle (Veh) was injected into the eye just before optic nerve crush (ONC-Day 1). Animals received daily […] of ambroxol (25 mg/ml) or vehicle by intraperitoneal (IP) injection from day 1 to day 14. At day 7 ambroxol (25 mg/ml) or vehicle was injected into the eye. Tracer CTB was injected into the eye on day 11 and animals sacrificed on day 14. FIG. 6B: Representative retina whole mount images with Tuj1 antibody staining 2 weeks post injury and (FIG. 6C) histogram depicting quantification of retinal ganglion cell (RGCs) survival measured by Tuj1 antibody staining Scale bar: 25 um FIG. 6D: Representative confocal images of optic nerve sections from WT animal treated with vehicle (n=10) and WT animal treated with ambroxol (25 mg/ml, n=13). Axons are labeled with CTB. Scale bar: 100 um. Measurements were made blinded to treatment. FIG. 6F: Quantification of number of axons in FIG. 6D as function of distance from crush site. T-test ** p<0.001 * p<0.05.
Ambroxol was tested for the ability to enhance CNS regeneration in vivo after injury. The optic nerve regeneration effect in mice after crush injury was evaluated after treating with and without ambroxol. […] In summary, a FDA approved drug—ambroxol accelerates and improves neural repair in the CNS. […]

[5] = tested on: neuropathic spinal cord injury pain; conditions: rats; Hama et al. 2010; cited from earlier work
neuronal Ca2+ channels = conditions: Weiser 2008; cited from earlier work

| Structure (SMILES) | neurite outgrowth, well fluorescence, concentration response [1] | neurite outgrowth, well fluorescence, concentration response ([1]; listed as Ambroxol) | block of neuronal Na+ channels (neuronal Na+ channels) | DRG neurite outgrowth after treatment with drugs (DRG neurons) | DRG neurite outgrowth after treatment with drugs (DRG neurons; listed as Ambroxol) | symptoms of peripheral neuropathic pain [2] | gene-expression levels of marker RAGs [3] | RGC survival after injury ([4]; optic nerve crush, two weeks) | axon regeneration after optic nerve crush ([4]; two weeks after injury) | symptoms of neuropathic spinal cord injury pain [5] | block of neuronal Ca2+ channels (neuronal Ca2+ channels) |
| --- | --- | --- | --- | --- | --- | --- | --- | --- | --- | --- | --- |
| Nc1c(Br)cc(Br)cc1CNC1CCC(O)CC1 (stereo not drawn) [ambroxol, trans-4-(2-Amino-3,5-dibrombenzylamino)-cyclohexanol] | significant dose response increase | increases in well fluorescence | potent blocker | significant enhancement of axonal outgrowth | more neuronal growth than control | effectively suppresses | significant changes | significantly increased RGC survival | significant increase in axon regeneration | effectively suppresses | potent blocker |
| CCN(CC)C(=S)SSC(=S)N(CC)CC [disulfiram] |  |  |  | only ambroxol showed significant enhancement |  |  | significant changes |  |  |  |  |
